## Assay results

Source: PubChem BioAssay AID1159506 (NCATS, 2015).

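Genome-wide siRNA knockdown in TC32 Ewing sarcoma cells, comparing luciferase light from an NR0B1-promoter reporter with a CMV-promoter reporter 48 hours after transfection. Each siRNA was applied at 20 nM. A z-score of the log NR0B1-over-CMV signal, less the median of siRNAs with the same seed; more negative means a stronger specific loss of the NR0B1 reporter.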

This is part of the screen; most of the strongest results are not listed here. Sequences are the guide (antisense) strand, without overhang.

strand,target gene,seed-corrected z-score
UGUUUACUAAGGAUCGAGG,ZNF486,-0.3496
UUCAUGAGCACGGUCUCCG,CTU1,0.6979
ACUCCUUAAAGCGACACUC,FGF11,0.731
UUAAUAGGAACAUCUGGUG,NUTF2,-0.1044
UUGCCUGACACUGUGCUCU,PMEPA1,-0.4777
UGGAGGUUCACGGUAAAGC,PKLR,-1.195
UUUACAAAUUUAUUUGUCC,NYX,0.0816
UUUAUCACUUCUUCGAUAC,ALDH1A3,-0.2578
UGAGAUAAGACCCAUUUGG,PTPN2P1,0.6039
UAGAUAGGCAAGUAGGAGG,FOXH1,0.1508
UAAAUUGUCCACGAGAUUG,BPIFB4,-0.7845
AUCGUAAGAGGUGUCCUCG,NRF1,-1.407
AAAGUUUGAUUCUUCGGUC,SH2D2A,-0.1651
UUCUGGAUAAGGUCCACUG,C4A,2.063
UAUGUUGUACUUGAUUAGG,AP4E1,-0.7251
UUACUGGGCAGGAACAUCU,ZAR1,-0.2468
UCGAUGUCUAGGUUGCGGC,TUBA4A,-0.4724
AACUAAAGCAGUCUUCUUC,TRMT10B,1.125
UUCAUGUCGUUGAACACCU,CFL1,-0.829
AAAGGAGCGAUUAUGAUUC,SPRR1A,1.498
AGCUGUGACACGUAGAAGU,GEMIN7,-1.067
ACCUGGUUGAUGAUGCUCU,STAR,-0.5148
UUCUCGACACGUACUAAGC,PLEKHA5,0.3266
UCUUCUAAGUCAUCAAUGC,TPM1,0.1167
UGUUGUACAAGGUACGAGG,ZNF30,-0.5551
UCAGGGACCUUGGAUGUCU,C1orf94,-0.404
AAAAAUCCCACCUCUUUGG,HPDL,-0.1698
UAAACUUCCCACCUGAUCU,LOC100507431,-1.244
UUAGUCGUUGGGCCUCUGG,PTGER1,1.084
AAAUCAAAUAUUAGGCUGC,LCN9,-0.2204
UUCAGGUCCAGUGCCCUCU,UQCRB,-0.5401
UUUUGAUCCCAUGAGAAGC,CPQ,-0.475
UAUAUUACAAGCUACAUGG,C1orf50,0.7101
UACAGGAUCACAUAAAGAG,PLXNB3,0.2725
UCAAUGCACAAGUAAAAUG,PIEZO1P1,0.7018
AUGGGAUCCAGACAGCUUC,LOC728613,0.3407
AAUUGGGUCUGAUUCUUGC,GLRA3,0.04432
UUUAAUGACAGGAACUUAG,URB1-AS1,0.2939
UCCGGUAAGUAGUAAGUGC,RICTOR,0.5252
UUUCGUUCCAGACGAGUCG,DCAF12,-0.3011
UAUCCUUCCAAUACUGCGC,MORC2,0.5408
UAAGUUUUGGACGAAUGUG,NEUROD6,0.1752
UGUUGGAGAAGAGCCACAG,RTN4RL2,0.0709
UUAGUGAAGGUUCCAGGAG,RPSAP19,0.9795
UCAGGGAUGACGUAAAGGG,RELA,-0.05785
AACUGAUAAGGAUACAUCA,MS4A4E,0.9165
UGAAUUUCCUCGUAGGUCA,PFKFB4,-1.836
UUCAUGAACUUGUAGAGGC,ARID5A,0.8943
UGCAACUCUAUUUUUGUUU,INIP,0.01772
UGCUCCAAUAUUGAAGUGC,LOC643923,0.5297
UUCAGAUCAAAUCCCAUCA,AGBL4,0.9313

Repeated from the top, 5 entries:

{"strand": "UGUUUACUAAGGAUCGAGG", "target gene": "ZNF486", "seed-corrected z-score": "-0.3496"}
{"strand": "UUCAUGAGCACGGUCUCCG", "target gene": "CTU1", "seed-corrected z-score": "0.6979"}
{"strand": "ACUCCUUAAAGCGACACUC", "target gene": "FGF11", "seed-corrected z-score": "0.731"}
{"strand": "UUAAUAGGAACAUCUGGUG", "target gene": "NUTF2", "seed-corrected z-score": "-0.1044"}
{"strand": "UUGCCUGACACUGUGCUCU", "target gene": "PMEPA1", "seed-corrected z-score": "-0.4777"}